Source: PubChem BioAssay AID504784 (Drosophila RNAi Screening Center, 2011)
The screen tested about 17,000 reagents; this is an unselected part of those with a known target gene and a result. 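Each column is one replicate's B-score; the combined score over replicates was not deposited, so single values may mislead.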 Not all columns of the deposit are shown.

- Aim: 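Genome-wide knock-down for genes giving too much or too little stored lipid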 (primary screen)
- System: Drosophila Kc167 embryonic cells
- Knock-down reagent: long dsRNA against Drosophila genes, about 250 ng dsRNA per well
- Time to read-out: 4 days
- Treatment: cells fed 400 µM oleic acid bound to BSA
- Measured: 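Cells imaged and segmented; ratio of lipid droplet area to nuclear area, log-transformed, then normalised as a B-score over the screen; higher means more stored lipid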
- Reading the numbers: droplet/nuclear area B-score: higher = more stored lipid (overstorage)

droplet/nuclear area B-score, replicate 1, by gene and reagent
Cdc45 (Cell division cycle 45): DRSC17747 0.763; DRSC18164 -0.00162
Fbxo42 (F-box protein 42): DRSC04529 -0.251
CG1631: DRSC20535 0.303
NetA (Netrin-A): DRSC20261 -0.299
pigs (pickled eggs): DRSC17472 -0.917; DRSC18334 -0.495; DRSC18335 1.09
CG16989: DRSC18535 1.21
alpha-Est4aPsi (pseudo): DRSC12473 -0.055
CAH13 (Carbonic anhydrase 13): DRSC06128 11.2
CG11099: DRSC06034 -0.0162
CG42758: DRSC10021 1.18
CG30076: DRSC05494 0.0432
CG17658: DRSC04292 -0.0102
Tm2 (Tropomyosin 2): DRSC16887 0.725
uzip (unzipped): DRSC04722 1.38

4 of these entries in another layout:
Gene,dsRNA,"droplet/nuclear area B-score, replicate 1"
Cdc45 (Cell division cycle 45),DRSC18164,-0.00162
Fbxo42 (F-box protein 42),DRSC04529,-0.251
CG1631,DRSC20535,0.303
NetA (Netrin-A),DRSC20261,-0.299

Continued.
droplet/nuclear area B-score, replicate 1, by gene and reagent
wun (wunen): DRSC07719 0.0253
CG14694: DRSC14917 -1.17
Bub3: DRSC14168 0.255
CG3719: DRSC18493 -0.0388
Tbc1d15-17 (TBC1 domain family member 15/17): DRSC00313 1.62
CG9664: DRSC00725 0.941
Ets96B: DRSC16127 0.31
CG8299: DRSC07139 0.614
wds (will die slowly): DRSC18852 -0.0483
Rh4 (Rhodopsin 4): DRSC11268 0.127
ckn (caskin): DRSC06149 0.298
CG15117: DRSC06539 -0.0603
DCTN1-p150 (Dynactin 1, p150 subunit): DRSC11175 -1.16
ArgRS-m (Arginyl-tRNA synthetase, mitochondrial): DRSC14186 0.671
Zir (Zizimin-related): DRSC00307 -0.461
mRpS29 (mitochondrial ribosomal protein S29): DRSC04398 0.0625
CG31244: DRSC21589 -1.08
